# Laboratory results published in PMC7408393.
# Sequences of proteins named here, by UniProt entry; tags and fusion partners are left off. Residues count along the entry.
# UniProt P08581, 25-1390: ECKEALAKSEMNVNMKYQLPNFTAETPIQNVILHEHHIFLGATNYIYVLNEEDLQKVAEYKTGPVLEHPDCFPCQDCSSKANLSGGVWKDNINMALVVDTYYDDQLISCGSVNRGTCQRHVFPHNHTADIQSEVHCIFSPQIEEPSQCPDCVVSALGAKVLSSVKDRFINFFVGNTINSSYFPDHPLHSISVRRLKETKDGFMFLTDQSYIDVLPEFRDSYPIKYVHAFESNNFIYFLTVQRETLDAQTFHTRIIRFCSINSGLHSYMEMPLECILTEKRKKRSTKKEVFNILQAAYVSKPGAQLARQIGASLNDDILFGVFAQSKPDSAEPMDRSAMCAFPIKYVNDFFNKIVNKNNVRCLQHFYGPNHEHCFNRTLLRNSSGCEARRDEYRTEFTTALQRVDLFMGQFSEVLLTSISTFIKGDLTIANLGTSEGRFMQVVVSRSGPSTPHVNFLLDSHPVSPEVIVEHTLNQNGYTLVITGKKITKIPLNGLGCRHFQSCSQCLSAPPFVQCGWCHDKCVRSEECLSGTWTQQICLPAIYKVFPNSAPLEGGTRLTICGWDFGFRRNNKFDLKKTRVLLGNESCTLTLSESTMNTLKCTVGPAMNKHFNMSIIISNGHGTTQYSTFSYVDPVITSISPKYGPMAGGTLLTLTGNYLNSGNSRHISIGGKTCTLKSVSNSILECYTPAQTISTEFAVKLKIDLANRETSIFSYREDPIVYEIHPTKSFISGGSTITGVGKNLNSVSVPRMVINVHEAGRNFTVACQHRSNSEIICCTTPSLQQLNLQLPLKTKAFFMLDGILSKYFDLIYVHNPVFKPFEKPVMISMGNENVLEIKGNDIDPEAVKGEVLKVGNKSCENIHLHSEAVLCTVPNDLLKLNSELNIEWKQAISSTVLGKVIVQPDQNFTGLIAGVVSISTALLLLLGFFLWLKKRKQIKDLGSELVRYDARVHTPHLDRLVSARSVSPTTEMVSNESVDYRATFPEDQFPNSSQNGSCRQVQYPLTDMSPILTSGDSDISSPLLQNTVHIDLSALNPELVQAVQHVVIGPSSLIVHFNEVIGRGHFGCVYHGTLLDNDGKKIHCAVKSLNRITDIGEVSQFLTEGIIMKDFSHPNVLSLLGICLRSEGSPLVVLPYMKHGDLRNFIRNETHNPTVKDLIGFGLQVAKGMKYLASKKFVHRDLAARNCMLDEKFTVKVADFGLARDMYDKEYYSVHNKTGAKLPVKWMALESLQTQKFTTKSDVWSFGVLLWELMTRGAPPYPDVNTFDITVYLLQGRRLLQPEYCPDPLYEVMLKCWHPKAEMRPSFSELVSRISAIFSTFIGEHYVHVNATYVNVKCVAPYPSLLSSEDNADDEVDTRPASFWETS
# UniProt P19338, whole entry: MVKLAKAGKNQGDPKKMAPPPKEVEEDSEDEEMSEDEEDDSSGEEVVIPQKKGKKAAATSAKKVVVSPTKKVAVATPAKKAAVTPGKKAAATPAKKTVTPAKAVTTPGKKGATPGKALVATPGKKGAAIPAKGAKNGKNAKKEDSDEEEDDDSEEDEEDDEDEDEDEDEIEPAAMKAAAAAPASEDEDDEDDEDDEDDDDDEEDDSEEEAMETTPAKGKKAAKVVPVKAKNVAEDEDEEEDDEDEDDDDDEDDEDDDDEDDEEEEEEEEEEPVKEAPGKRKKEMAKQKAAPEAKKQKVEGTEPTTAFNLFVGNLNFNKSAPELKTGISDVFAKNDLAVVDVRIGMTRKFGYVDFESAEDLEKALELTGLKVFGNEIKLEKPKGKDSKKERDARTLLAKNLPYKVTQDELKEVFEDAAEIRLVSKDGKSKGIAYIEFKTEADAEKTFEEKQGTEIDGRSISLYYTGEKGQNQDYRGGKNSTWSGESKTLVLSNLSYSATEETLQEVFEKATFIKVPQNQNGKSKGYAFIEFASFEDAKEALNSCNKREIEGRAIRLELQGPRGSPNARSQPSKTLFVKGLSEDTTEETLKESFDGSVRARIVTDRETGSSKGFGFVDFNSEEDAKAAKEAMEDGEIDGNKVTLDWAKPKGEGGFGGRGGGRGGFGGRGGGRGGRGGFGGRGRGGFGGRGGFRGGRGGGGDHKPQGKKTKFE
# Construct, isoform or probe ends are uncertain for at least one entry. Where cells or extracts were used, other partners may take part. For some of these results: No signal at the amounts used counts as a negative.
# Assays:
# Assay in all cases: pull-down, immunoblot
# [1] = target: c-Met receptor (UniProt P08581); conditions: MKN-45 lysate, multivalent aptamer on AuNS; 5' thiol (C6-S-S-C6, reduced), grafted on gold nanostructure (AuNS), about 222 per particle; apt-AuNS incubated with MKN-45 cell lysate, then immunoblot; protein in an extract; folded or branched DNA
# [2] = target: nucleolin (UniProt P19338); conditions: MKN-45 lysate, 5' thiol (C6-S-S-C6, reduced), grafted on gold nanostructure (AuNS), apt-AuNS incubated with MKN-45 cell lysate, then immunoblot, protein in an extract, folded or branched DNA
# [3] = test system: c-Met:nucleolin complex; conditions: MKN-45 lysate, c-Met detected on AuNS-N, attributed to its interaction with nucleolin; 5' thiol (C6-S-S-C6, reduced), grafted on gold nanostructure (AuNS), about 403 per particle; apt-AuNS incubated with MKN-45 cell lysate, then immunoblot; protein in an extract; folded or branched DNA
Sequence,binding result [1],"binding result ([2]; nucleolin only detected from AuNS-N, about 222 per particle)","binding result ([2]; multivalent aptamer on AuNS, about 403 per particle)",binding result [3]
ATCAGGCTGGATGGTAGCTCGGTCGGGGTGGGTGGGTTGGCAAGTCTGAT [anti-c-Met aptamer on AuNS (AuNS-C)],binds,no binding,,
TTTGGTGGTGGTGGTTGTGGTGGTGGTG [anti-nucleolin aptamer AS1411 on AuNS (AuNS-N)],,,binds,binds
